PubChem BioAssay AID652259, Drosophila RNAi Screening Center, 2013
Aim: 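Identify new Wingless signalling regulators in fly cells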 (primary screen). System: Drosophila clone 8 imaginal disc epithelial cells. Reagents: long dsRNA against Drosophila genes. Treatment: pathway stimulated by co-transfected Wingless expression plasmid. Read-out: 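Firefly luciferase from a tcf-site Wingless reporter, measured alongside co-transfected Renilla luciferase that tracks transfection; pathway stimulated by a Wingless plasmid; the firefly-to-Renilla ratio is not deposited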. Scale: firefly reporter light: higher = more Wg reporter light, before normalisation; Renilla control light: higher = more transfected or surviving cells. Hit rule: 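a knock-down is a candidate when at least two out of four statistical tests show it departing from its plate mean; one test alone signals a weak candidate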. Meaning of the calls: active = candidate regulator (raises or lowers reporter); inactive = not a candidate.
In all, the deposit lists about 22,000 reagents; shown is an unselected part of those with a known target gene and a result. In the full data, 233 (1.1%) were called active. 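Light values are raw, unnormalised plate reads; the ratio scores behind the reporter calls were not deposited.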 The record does not give: the amount of reagent, the time to read-out, the dose of the treatment.

{"target": "CG31954 (GeneID 33572)", "DRSC id": "DRSC00580", "firefly reporter light, replicate 1": 10727, "Renilla control light, replicate 1": 4912, "call": "inactive"}
{"target": "CG34354 (GeneID 5740528)", "DRSC id": "DRSC13863", "firefly reporter light, replicate 1": 5520, "Renilla control light, replicate 1": 1860, "call": "inactive"}
{"target": "CG34354 (GeneID 5740528)", "DRSC id": "DRSC14515", "reporter change call, replicate 1": "Wg reporter activity raised", "firefly reporter light, replicate 1": 9483, "Renilla control light, replicate 1": 1176, "call": "active"}
{"target": "CG34354 (GeneID 5740528)", "DRSC id": "DRSC14558", "firefly reporter light, replicate 1": 6128, "Renilla control light, replicate 1": 930, "call": "inactive"}
{"target": "CG34354 (GeneID 5740528)", "DRSC id": "DRSC15645", "firefly reporter light, replicate 1": 7312, "Renilla control light, replicate 1": 3296, "call": "inactive"}
{"target": "dimm (GeneID 35404)", "DRSC id": "DRSC03100", "firefly reporter light, replicate 1": 2759, "firefly reporter light, replicate 2": 10688, "Renilla control light, replicate 1": 845, "Renilla control light, replicate 2": 3248, "call": "inactive"}
{"target": "Rilpl (GeneID 31090)", "DRSC id": "DRSC18494", "firefly reporter light, replicate 1": 4486, "firefly reporter light, replicate 2": 7047, "Renilla control light, replicate 1": 955, "Renilla control light, replicate 2": 3424, "call": "inactive"}
{"target": "CG32945 (GeneID 318261)", "DRSC id": "DRSC12014", "firefly reporter light, replicate 1": 2600, "Renilla control light, replicate 1": 1113, "call": "inactive"}
{"target": "CG9380 (GeneID 38011)", "DRSC id": "DRSC04549", "firefly reporter light, replicate 1": 3094, "firefly reporter light, replicate 2": 7179, "Renilla control light, replicate 1": 614, "Renilla control light, replicate 2": 2954, "call": "inactive"}
{"target": "Sid (GeneID 43390)", "DRSC id": "DRSC16588", "firefly reporter light, replicate 1": 8212, "Renilla control light, replicate 1": 2524, "call": "inactive"}
{"target": "lncRNA:noe (GeneID 43918)", "DRSC id": "DRSC22747", "firefly reporter light, replicate 1": 7.85e5, "firefly reporter light, replicate 2": 8.79e5, "Renilla control light, replicate 1": 3.18e5, "Renilla control light, replicate 2": 3.79e5, "call": "inactive"}
{"target": "CG16787 (GeneID 37811)", "DRSC id": "DRSC04282", "firefly reporter light, replicate 1": 3584, "firefly reporter light, replicate 2": 7096, "Renilla control light, replicate 1": 823, "Renilla control light, replicate 2": 2624, "call": "inactive"}
{"target": "CG5435 (GeneID 34657)", "DRSC id": "DRSC02860", "firefly reporter light, replicate 1": 2915, "firefly reporter light, replicate 2": 7280, "Renilla control light, replicate 1": 1196, "Renilla control light, replicate 2": 2934, "call": "inactive"}
{"target": "GstE11 (GeneID 37128)", "DRSC id": "DRSC06926", "firefly reporter light, replicate 1": 18217, "Renilla control light, replicate 1": 4413, "call": "inactive"}
{"target": "Ssb-c31a (GeneID 34120)", "DRSC id": "DRSC03443", "firefly reporter light, replicate 1": 3340, "firefly reporter light, replicate 2": 10025, "Renilla control light, replicate 1": 1781, "Renilla control light, replicate 2": 5675, "call": "inactive"}
{"target": "Drat (GeneID 35687)", "DRSC id": "DRSC06600", "firefly reporter light, replicate 1": 8291, "Renilla control light, replicate 1": 1696, "call": "inactive"}
{"target": "GstD10 (GeneID 59240)", "DRSC id": "DRSC15346", "firefly reporter light, replicate 1": 9046, "Renilla control light, replicate 1": 2920, "call": "inactive"}
{"target": "Cys (GeneID 41767)", "DRSC id": "DRSC16637", "firefly reporter light, replicate 1": 9661, "Renilla control light, replicate 1": 3942, "call": "inactive"}
{"target": "CG14515 (GeneID 43454)", "DRSC id": "DRSC14867", "firefly reporter light, replicate 1": 5192, "Renilla control light, replicate 1": 2155, "call": "inactive"}
{"target": "Or49a (GeneID 36350)", "DRSC id": "DRSC07493", "firefly reporter light, replicate 1": 6615, "Renilla control light, replicate 1": 2390, "call": "inactive"}
{"target": "CG14854 (GeneID 41761)", "DRSC id": "DRSC14978", "firefly reporter light, replicate 1": 14400, "Renilla control light, replicate 1": 3800, "call": "inactive"}
{"target": "CG31517 (GeneID 251711)", "DRSC id": "DRSC13010", "firefly reporter light, replicate 1": 4098, "Renilla control light, replicate 1": 1611, "call": "inactive"}
{"target": "CG30487 (GeneID 246646)", "DRSC id": "DRSC05377", "firefly reporter light, replicate 1": 20742, "Renilla control light, replicate 1": 15879, "call": "inactive"}
{"target": "Spn42De (GeneID 35602)", "DRSC id": "DRSC05011", "firefly reporter light, replicate 1": 1529, "firefly reporter light, replicate 2": 6419, "Renilla control light, replicate 1": 722, "Renilla control light, replicate 2": 2836, "call": "inactive"}
{"target": "CG9993 (GeneID 37358)", "DRSC id": "DRSC04599", "firefly reporter light, replicate 1": 2503, "firefly reporter light, replicate 2": 5546, "Renilla control light, replicate 1": 666, "Renilla control light, replicate 2": 2029, "call": "inactive"}

Hits, of those listed so far:
{"target": "CG34354 (GeneID 5740528)", "DRSC id": "DRSC14515", "reporter change call, replicate 1": "Wg reporter activity raised", "firefly reporter light, replicate 1": 9483, "Renilla control light, replicate 1": 1176, "call": "active"}
